Results reported in the supplement of paper PMC4604168 (melanoma cell lines).
Some of the results follow. Single values are uncertain, as repeats are few or missing.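 Cells were imaged in 1,536-well plates, and nuclei stained with an antibody against cleaved PARP were counted against all DNA-stained nuclei to give the apoptosis fraction. Screening doses were chosen to leave most cells alive, and resting and induced cleaved-PARP levels differ strongly between cell lines.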

System: 501Mel
Assay: cleaved PARP positive nuclei fraction relative to DMSO control; melanoma cells; higher = more apoptosis
Conditions: library dose: low library concentration; 72 h

Row | Compound | cleaved PARP positive nuclei fraction [%]
1 | Cc1cc(SCc2sc(-c3ccc(C(F)(F)F)c(F)c3)nc2C)ccc1OCC(=O)O + Cn1cc(/C=C2\C(=O)Nc3cccnc32)c2ccccc21 [GW441756] (first compound 2 µM, partner dose 0.4 µM) | 72.2
2 | CCN(CC)CCCCNc1ncc2cc(-c3cc(OC)cc(OC)c3)c(NC(=O)NC(C)(C)C)nc2n1 + O=C(Oc1ccc([N+](=O)[O-])cc1)N1CCC(C(O)(c2ccc3c(c2)OCO3)c2ccc3c(c2)OCO3)CC1 [JZL184] (first compound 0.1 µM, partner dose 1 µM) | 95.3
3 | O=C(Nc1ccccc1)c1cc([N+](=O)[O-])ccc1Cl + O=C(Oc1ccc([N+](=O)[O-])cc1)N1CCC(C(O)(c2ccc3c(c2)OCO3)c2ccc3c(c2)OCO3)CC1 [JZL184] (first compound 2 µM, partner dose 1 µM) | 54.5
4 | Oc1nc(-c2ccc(C(F)(F)F)cc2)nc2c1CSCC2 + O=C(Oc1ccc([N+](=O)[O-])cc1)N1CCC(C(O)(c2ccc3c(c2)OCO3)c2ccc3c(c2)OCO3)CC1 [JZL184] (first compound 2 µM, partner dose 1 µM) | 86.7
5 | C[As](C)SC[C@H](NC(=O)CC[C@H](N)C(=O)O)C(=O)NCC(=O)O [Darinaparsin] + O=c1cc(-c2cccc3c2Sc2ccccc2S3)oc(N2CCOCC2)c1 [KU55933] (first compound 0.4 µM, partner dose 1 µM) | 100
6 | C[As](C)SC[C@H](NC(=O)CC[C@H](N)C(=O)O)C(=O)NCC(=O)O [Darinaparsin] + O=C(O)C(=O)Nc1sc2c(c1C(=O)O)CCNC2 [TCS401] (first compound 0.4 µM, partner dose 1.66667 µM) | 44.9

System: A101D
Assay: as above
Conditions: library dose: low library concentration; 72 h

Row | Compound | cleaved PARP positive nuclei fraction [%]
7 | Cn1c(Nc2ccc(C(F)(F)F)cc2)nc2cc(Oc3ccnc(-c4ncc(C(F)(F)F)[nH]4)c3)ccc21 + O=C(Oc1ccc([N+](=O)[O-])cc1)N1CCC(C(O)(c2ccc3c(c2)OCO3)c2ccc3c(c2)OCO3)CC1 [JZL184] (first compound 0.08 µM, partner dose 1 µM) | 64.2
8 | C/C(O)=C(\C#N)C(=O)Nc1cc(Br)ccc1Br + COc1cc(N2CCC(N3CCN(C)CC3)CC2)ccc1Nc1ncc(Cl)c(Nc2ccccc2S(=O)(=O)C(C)C)n1 [NVP-TAE684] (first compound 2 µM, partner dose 0.08 µM) | 36.9
9 | Cc1cc(SCc2sc(-c3ccc(C(F)(F)F)c(F)c3)nc2C)ccc1OCC(=O)O + Cc1cc([N+](=O)[O-])ccc1NS(=O)(=O)c1cc(Cl)ccc1Cl [FH535] (first compound 2 µM, partner dose 1 µM) | 93.1
10 | C[As](C)SC[C@H](NC(=O)CC[C@H](N)C(=O)O)C(=O)NCC(=O)O [Darinaparsin] + O=S(=O)(c1ccccc1)N(CC(F)(F)F)c1ccc(C(O)(C(F)(F)F)C(F)(F)F)cc1 [T0901317] (first compound 0.4 µM, partner dose 1.4 µM) | 62.2
11 | Cc1cc(SCc2sc(-c3ccc(C(F)(F)F)c(F)c3)nc2C)ccc1OCC(=O)O + Oc1nc(-c2ccc(C(F)(F)F)cc2)nc2c1CSCC2 [XAV939] (first compound 2 µM, partner dose 2 µM) | 83.3
12 | CCc1ccc(CCOc2ccc(CC3SC(=O)NC3=O)cc2)nc1 (configuration not stated) [pioglitazone] + Cc1cc(SCc2sc(-c3ccc(C(F)(F)F)c(F)c3)nc2C)ccc1OCC(=O)O [GW0742] (first compound 2 µM, partner dose 2 µM) | 325
13 | Cc1cc(N2CCOCC2)cc2[nH]c(-c3c(NC[C@@H](O)c4cccc(Cl)c4)cc[nH]c3=O)nc12 + O=C(Oc1ccc([N+](=O)[O-])cc1)N1CCC(C(O)(c2ccc3c(c2)OCO3)c2ccc3c(c2)OCO3)CC1 [JZL184] (first compound 0.2 µM, partner dose 1 µM) | 110
14 | C[As](C)SC[C@H](NC(=O)CC[C@H](N)C(=O)O)C(=O)NCC(=O)O [Darinaparsin] + O=C(Oc1ccc([N+](=O)[O-])cc1)N1CCC(C(O)(c2ccc3c(c2)OCO3)c2ccc3c(c2)OCO3)CC1 [JZL184] (first compound 0.4 µM, partner dose 1 µM) | 30.6
15 | Cc1cc(SCc2sc(-c3ccc(C(F)(F)F)c(F)c3)nc2C)ccc1OCC(=O)O + c1cc(-c2cnn3cc(-c4ccc(OCCN5CCCCC5)cc4)cnc23)ccn1 [Dorsomorphin] (first compound 2 µM, partner dose 0.4 µM) | 114
16 | C#Cc1cccc(Nc2ncnc3cc(OCCOC)c(OCCOC)cc23)c1 [erlotinib] + C/C(O)=C(\C#N)C(=O)Nc1cc(Br)ccc1Br [LFM-A13] (first compound 0.8 µM, partner dose 2 µM) | 187
17 | C/C(O)=C(\C#N)C(=O)Nc1cc(Br)ccc1Br + O=c1cc(-c2cccc3c2Sc2ccccc2S3)oc(N2CCOCC2)c1 [KU55933] (first compound 2 µM, partner dose 1 µM) | 280
18 | Cc1cc(SCc2sc(-c3ccc(C(F)(F)F)c(F)c3)nc2C)ccc1OCC(=O)O + Oc1cc(-c2nc(-c3ccccc3)[nH]c2-c2ccncc2)ccc1Cl [L779450] (first compound 2 µM, partner dose 0.2 µM) | 23.6
19 | O=C(Nc1cccc(Cl)c1)Nc1ncc(CCNc2ncnc3ccsc23)s1 + O=C(Oc1ccc([N+](=O)[O-])cc1)N1CCC(C(O)(c2ccc3c(c2)OCO3)c2ccc3c(c2)OCO3)CC1 [JZL184] (first compound 0.0008 µM, partner dose 1 µM) | 511
20 | COc1ccc(-c2ccc3c(N4CCOCC4)nc(N4C[C@@H](C)O[C@@H](C)C4)nc3n2)cc1CO + O=C(Oc1ccc([N+](=O)[O-])cc1)N1CCC(C(O)(c2ccc3c(c2)OCO3)c2ccc3c(c2)OCO3)CC1 [JZL184] (first compound 0.02 µM, partner dose 1 µM) | 51.4
21 | Cc1nc(Nc2ncc(C(=O)Nc3c(C)cccc3Cl)s2)cc(N2CCN(CCO)CC2)n1 [dasatanib] + C/C(O)=C(\C#N)C(=O)Nc1cc(Br)ccc1Br [LFM-A13] (first compound 0.004 µM, partner dose 2 µM) | 71.5
22 | COCC[n+]1c2c(n(Cc3cnccn3)c1C)C(=O)c1ccccc1C2=O + Cc1cc(SCc2sc(-c3ccc(C(F)(F)F)c(F)c3)nc2C)ccc1OCC(=O)O [GW0742] (first compound 0.0004 µM, partner dose 2 µM) | 161
23 | COc1cc(N2CCC(N3CCN(C)CC3)CC2)ccc1Nc1ncc(Cl)c(Nc2ccccc2S(=O)(=O)C(C)C)n1 + O=C(Oc1ccc([N+](=O)[O-])cc1)N1CCC(C(O)(c2ccc3c(c2)OCO3)c2ccc3c(c2)OCO3)CC1 [JZL184] (first compound 0.08 µM, partner dose 1 µM) | 154
24 | NCC(=O)Nc1ccc(-n2nc(C(F)(F)F)cc2-c2ccc3c(ccc4ccccc43)c2)cc1 + Cc1cc(SCc2sc(-c3ccc(C(F)(F)F)c(F)c3)nc2C)ccc1OCC(=O)O [GW0742] (first compound 1 µM, partner dose 2 µM) | 137
25 | C/C(O)=C(\C#N)C(=O)Nc1cc(Br)ccc1Br + Cn1cc(/C=C2\C(=O)Nc3cccnc32)c2ccccc21 [GW441756] (first compound 2 µM, partner dose 0.4 µM) | 120
26 | C[As](C)SC[C@H](NC(=O)CC[C@H](N)C(=O)O)C(=O)NCC(=O)O [Darinaparsin] + c1cc(-c2cnn3cc(-c4ccc(OCCN5CCCCC5)cc4)cnc23)ccn1 [Dorsomorphin] (first compound 0.4 µM, partner dose 0.4 µM) | 119
27 | CCc1ccc(CCOc2ccc(CC3SC(=O)NC3=O)cc2)nc1 (configuration not stated) [pioglitazone] + C/C(O)=C(\C#N)C(=O)Nc1cc(Br)ccc1Br [LFM-A13] (first compound 2 µM, partner dose 2 µM) | 163
28 | Nc1cccc2c1CN(C1CCC(=O)NC1=O)C2=O (configuration not stated) [lenalidomide] + Cc1cc(SCc2sc(-c3ccc(C(F)(F)F)c(F)c3)nc2C)ccc1OCC(=O)O [GW0742] (first compound 1 µM, partner dose 2 µM) | 35.2
29 | Cc1cc(SCc2sc(-c3ccc(C(F)(F)F)c(F)c3)nc2C)ccc1OCC(=O)O + CC(C)CCN1c2nc(Nc3cc(F)c(O)c(F)c3)ncc2N(C)C(=O)C1C [BID1870] (first compound 2 µM, partner dose 0.2 µM) | 106
30 | C[As](C)SC[C@H](NC(=O)CC[C@H](N)C(=O)O)C(=O)NCC(=O)O [Darinaparsin] + COc1cc2ncnc(Nc3ccc(Oc4ccccc4)cc3)c2cc1OC [SrcI1] (first compound 0.4 µM, partner dose 2 µM) | 107
31 | COc1ccc(-c2ccc3c(N4CCOCC4)nc(N4C[C@@H](C)O[C@@H](C)C4)nc3n2)cc1CO + Cc1cc(SCc2sc(-c3ccc(C(F)(F)F)c(F)c3)nc2C)ccc1OCC(=O)O [GW0742] (first compound 0.02 µM, partner dose 2 µM) | 135
32 | O=S(=O)(c1ccccc1)N(CC(F)(F)F)c1ccc(C(O)(C(F)(F)F)C(F)(F)F)cc1 + C/C(O)=C(\C#N)C(=O)Nc1cc(Br)ccc1Br [LFM-A13] (first compound 1.4 µM, partner dose 2 µM) | 186

Looked up one by one from the entries so far, two records:
Row | Compound | cleaved PARP positive nuclei fraction [%]
14 | C[As](C)SC[C@H](NC(=O)CC[C@H](N)C(=O)O)C(=O)NCC(=O)O [Darinaparsin] + O=C(Oc1ccc([N+](=O)[O-])cc1)N1CCC(C(O)(c2ccc3c(c2)OCO3)c2ccc3c(c2)OCO3)CC1 [JZL184] (first compound 0.4 µM, partner dose 1 µM) | 30.6
13 | Cc1cc(N2CCOCC2)cc2[nH]c(-c3c(NC[C@@H](O)c4cccc(Cl)c4)cc[nH]c3=O)nc12 + O=C(Oc1ccc([N+](=O)[O-])cc1)N1CCC(C(O)(c2ccc3c(c2)OCO3)c2ccc3c(c2)OCO3)CC1 [JZL184] (first compound 0.2 µM, partner dose 1 µM) | 110
